Measured data: PubChem BioAssay AID1159578 (Peter MacCallum Cancer Centre, 2015)

- Test: 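Knock-downs that alter how fast lymphatic endothelial cells migrate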 (primary screen)
- System: human lymphatic endothelial cells
- Reagents: siRNA pool against human genes, 40 nM
- Duration: 48 h after transfection
- Read-out: 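High-content imaging of dye-stained cells in a scratch assay measures filled wound area and nuclei per well; duplicate means given as ratio to mock and robust z-score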
- Scale: migration robust z-score: higher = faster migration into the scratch; nuclei per well: higher = more cells in the well
- Call rule: 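Migration changed when robust z exceeds 2 or falls below -2 and mean nuclei number is at least 3300; otherwise not called changed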
- Calls: active = migration changed; inactive = no migration change, or too few cells
Here is one part, drawn at random, of about 18,000 reagents tested. Over the whole deposit, about 1,030 (5.7%) are marked active. 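Inactive calls also include pools with fewer than 3300 nuclei, whose migration was not assessed.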 Raw values are not corrected between plates. Not all columns of the deposit are shown. Reagent sequences are not shown.

Target gene | migration robust z-score | migration class with cell-count check | nuclei per well, duplicate mean | activity call
TERF2 | 1.36 | migration z between -2 and 2; enough cells | 6115 | inactive
RALBP1 | 0.13 | migration z between -2 and 2; enough cells | 5130 | inactive
EDIL3 | 0.47 | migration z between -2 and 2; enough cells | 5530 | inactive
FBXO28 | 0.7 | migration z between -2 and 2; enough cells | 5417 | inactive
SPRR1A | 0.52 | migration z between -2 and 2; enough cells | 4790 | inactive
PRKAA2 | 0.13 | migration z between -2 and 2; enough cells | 5450 | inactive
LIN52 | 1.19 | migration z between -2 and 2; enough cells | 4146 | inactive
EIF2S3 | -0.46 | migration z between -2 and 2; enough cells | 7582 | inactive
MTERF3 | 3.16 | migration z above 2; enough cells | 6409 | active
GBA3 | -1.29 | migration z between -2 and 2; enough cells | 5514 | inactive
MKRN3 | -0.24 | migration z between -2 and 2; enough cells | 6493 | inactive
RAD50 | 1.19 | migration z between -2 and 2; enough cells | 6792 | inactive
CLIC2 | 0.78 | migration z between -2 and 2; enough cells | 5376 | inactive
TMEM120B | -0.56 | migration z between -2 and 2; enough cells | 6008 | inactive
RCC2 | 0.43 | migration z between -2 and 2; enough cells | 5988 | inactive
BCAT2 | -0.65 | migration z between -2 and 2; enough cells | 7559 | inactive
NUBP2 | 0.91 | migration z between -2 and 2; enough cells | 5568 | inactive
TRIM44 | 0.1 | migration z between -2 and 2; enough cells | 3856 | inactive
BMP1 | 0.67 | migration z between -2 and 2; enough cells | 5897 | inactive
CLEC16A | -0.2 | migration z between -2 and 2; enough cells | 6107 | inactive
AQP11 | 0.15 | migration z between -2 and 2; enough cells | 5685 | inactive
OR2T6 | -1.05 | migration z between -2 and 2; enough cells | 6648 | inactive
CNKSR3 | -0.38 | migration z between -2 and 2; enough cells | 4920 | inactive
GEMIN7 | 0.57 | migration z between -2 and 2; enough cells | 5616 | inactive
ZNF620 | 0.9 | migration z between -2 and 2; enough cells | 6566 | inactive
KISS1 | -0.33 | migration z between -2 and 2; enough cells | 4656 | inactive
PABPC5 | 0.92 | migration z between -2 and 2; enough cells | 6296 | inactive
HLA-DOA | 1.2 | migration z between -2 and 2; enough cells | 6677 | inactive
NELFE | 0.18 | migration z between -2 and 2; enough cells | 6374 | inactive
ZNF177 | -0.04 | migration z between -2 and 2; enough cells | 6422 | inactive
PARVB | 0.08 | migration z between -2 and 2; enough cells | 5888 | inactive
MCM6 | 0.21 | migration z between -2 and 2; enough cells | 5771 | inactive
CDC16 | 0.42 | migration z between -2 and 2; enough cells | 5820 | inactive
DUSP12 | -2.31 | migration z below -2; enough cells | 5244 | active
PDE4C | 0.8 | migration z between -2 and 2; enough cells | 6825 | inactive
FSTL1 | 1.44 | migration z between -2 and 2; enough cells | 5710 | inactive
GNRHR | 0.46 | migration z between -2 and 2; enough cells | 6788 | inactive
PRMT9 | -0.19 | migration z between -2 and 2; enough cells | 5006 | inactive
STX5 | 0.23 | migration z between -2 and 2; enough cells | 5952 | inactive
SLC28A3 | 0.38 | migration z between -2 and 2; enough cells | 6884 | inactive
SDHC | -0.57 | migration z between -2 and 2; enough cells | 4248 | inactive
SYNJ2 | -0.11 | migration z between -2 and 2; enough cells | 4238 | inactive
DLX3 | -1.4 | migration z between -2 and 2; enough cells | 4155 | inactive
ALPL | -0.44 | migration z between -2 and 2; enough cells | 5220 | inactive
ARL8B | -0.74 | migration z between -2 and 2; enough cells | 6369 | inactive
PCF11 | 0.32 | migration z between -2 and 2; enough cells | 5276 | inactive
MOG | -0.73 | migration z between -2 and 2; enough cells | 4898 | inactive
GRPR | -0.7 | migration z between -2 and 2; enough cells | 6327 | inactive
EBAG9 | -0.12 | migration z between -2 and 2; enough cells | 7446 | inactive
BEX1 | 0.92 | migration z between -2 and 2; enough cells | 4960 | inactive
S100G | 2.46 | migration z above 2; enough cells | 6211 | active
DUS2 | 0.86 | migration z between -2 and 2; enough cells | 6006 | inactive
LYPD4 | 0.71 | migration z between -2 and 2; enough cells | 7540 | inactive
C2CD2L | 0.55 | migration z between -2 and 2; enough cells | 6528 | inactive
SLC40A1 | -0.18 | migration z between -2 and 2; enough cells | 5947 | inactive
CLASRP | -1.44 | migration z between -2 and 2; enough cells | 4828 | inactive
SCN2A | 0.57 | migration z between -2 and 2; enough cells | 5819 | inactive
PAIP2 | -0.46 | migration z between -2 and 2; enough cells | 4222 | inactive
SEMA3G | 0.08 | migration z between -2 and 2; enough cells | 6012 | inactive
DHX30 | -0.16 | migration z between -2 and 2; enough cells | 4821 | inactive
RBPJ | -0.24 | migration z between -2 and 2; enough cells | 4197 | inactive
IQCF2 | 1.56 | migration z between -2 and 2; enough cells | 5694 | inactive
LTK | 0.78 | migration z between -2 and 2; enough cells | 5563 | inactive
CTSV | 0.62 | migration z between -2 and 2; enough cells | 6167 | inactive
PMM1 | -0.7 | migration z between -2 and 2; enough cells | 4728 | inactive
CREB3L2 | -1.99 | migration z between -2 and 2; enough cells | 4708 | inactive
GNPTG | -0.75 | migration z between -2 and 2; enough cells | 5952 | inactive
RCOR1 | 1.33 | migration z between -2 and 2; enough cells | 6432 | inactive
SLC19A3 | 0.8 | migration z between -2 and 2; enough cells | 8281 | inactive
PEX39 | 2.02 | migration z above 2; enough cells | 5799 | active
MKRN1 | -0.44 | migration z between -2 and 2; enough cells | 6412 | inactive
SRP72 | 0.1 | migration z between -2 and 2; enough cells | 5450 | inactive
VCY1B | -1.51 | migration z between -2 and 2; enough cells | 3891 | inactive

11 consecutive reagents already listed, for reference:
Target gene | migration robust z-score | migration class with cell-count check | nuclei per well, duplicate mean | activity call
BCAT2 | -0.65 | migration z between -2 and 2; enough cells | 7559 | inactive
NUBP2 | 0.91 | migration z between -2 and 2; enough cells | 5568 | inactive
TRIM44 | 0.1 | migration z between -2 and 2; enough cells | 3856 | inactive
BMP1 | 0.67 | migration z between -2 and 2; enough cells | 5897 | inactive
CLEC16A | -0.2 | migration z between -2 and 2; enough cells | 6107 | inactive
AQP11 | 0.15 | migration z between -2 and 2; enough cells | 5685 | inactive
OR2T6 | -1.05 | migration z between -2 and 2; enough cells | 6648 | inactive
CNKSR3 | -0.38 | migration z between -2 and 2; enough cells | 4920 | inactive
GEMIN7 | 0.57 | migration z between -2 and 2; enough cells | 5616 | inactive
ZNF620 | 0.9 | migration z between -2 and 2; enough cells | 6566 | inactive
KISS1 | -0.33 | migration z between -2 and 2; enough cells | 4656 | inactive
